The exact form of at least one protein or probe is not confirmed. For some assays here: Where a protein sequence is shown, tags need not be part of it.
Columns and labels:
[1] = target: T1, NF-kB p50 protein (NFKB1) (UniProt P19838); assay: pull-down; conditions: 5-azido-C3-U at all U of SEQ 2 component, conjugated to thalidomide by click chemistry; p50 co-recovered with GST-Cereblon through conjugated circRNA (2 nM RNA, 10 nM proteins); 25 mM Tris pH 7.0, 100 mM NaCl, 1 mM MgCl2, 1 mM EDTA; purified recombinant protein
T1 sequence (looked up, limits assumed): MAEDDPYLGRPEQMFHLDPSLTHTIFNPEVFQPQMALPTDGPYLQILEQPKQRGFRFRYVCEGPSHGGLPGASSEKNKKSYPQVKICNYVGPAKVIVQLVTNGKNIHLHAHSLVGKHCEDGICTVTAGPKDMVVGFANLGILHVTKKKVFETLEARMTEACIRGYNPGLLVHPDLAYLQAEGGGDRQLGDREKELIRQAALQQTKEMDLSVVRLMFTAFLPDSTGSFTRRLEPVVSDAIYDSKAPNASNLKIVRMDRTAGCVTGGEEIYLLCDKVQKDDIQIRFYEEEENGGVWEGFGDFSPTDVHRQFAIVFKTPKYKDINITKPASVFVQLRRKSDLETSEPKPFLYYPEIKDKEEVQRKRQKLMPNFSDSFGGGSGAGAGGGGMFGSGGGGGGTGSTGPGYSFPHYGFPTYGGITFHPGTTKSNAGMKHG

[2] = test system: NF-kB (endogenous, A549 cells) (Homo sapiens); assay: activity in cells; conditions: 5' monophosphate, 3' hydroxyl; A549 MTT, 1 pmol RNA transfected; 101% day 1; indirect readout; protein in cells

Row | Sequence | binding result [1] | functional effect of the aptamer (% viability day 2) [2]
1 | GGAAUAGCCGAAAAACAAAAAGAUCUUGAAACUGUUUUAAGGUUGGCCGAUCAAAAACAAAACGGCUAUUGGAACGGCAACCGGGCAAACAAACAAUCAAUCAAUCAAUCAAUCAAUCAAUCAAUCAAUCAAUCAAACAAACAAAAGACCGAGAGCCACC | binds | 
2 | AAAAAAAAAAGAUCUUGAAACUGUUUUAAGGUUGGCCGAUCUUAAAAAA [NF-kB aptamer, linear RNA] |  | 97
